Measurements reported in patent publication US20100081652A1, “Cinnamoyl Compound and Use Thereof” (priority 2005, published 2010).
Some entries share one result that the patent states for a list of compounds. For at least one compound, name, drawing or mass did not settle the structure.

How the values were obtained:
[1] = tested on: transcription regulatory region for a human-derived Type I collagen a2 chain gene; assay: Inhibition of TGF-β-promoted transcription of a Type I collagen gene, COL-Luc luciferase reporter in normal human fetal skin fibroblasts; type: cell-based; settings: TGF-β added, normal human fetal skin fibroblast, 40 hours
[2] = tested on: fibronectin gene; assay: Inhibition of TGF-β-promoted fibronectin gene transcription in normal human skin fibroblasts (quantitative RT-PCR, fibronectin/GAPDH); type: cell-based; settings: TGF-β 5 ng/ml, normal human skin fibroblast, 26 hours
[3] = compound final concentration 10 μM
[4] = compound final concentration 3 μM

Compound	Inhibition percentage of the ability of TGF-β to promote transcription of a Type I collagen gene [1, 3]	also measured
Cn1c(=O)c(C(=O)/C=C/c2ccc(C(=O)NCCO)s2)c(O)c2cccnc21 [(1i), 4-hydroxy-1-methyl-3-[3-[5-[(2-hydroxyethyl)aminocarbonyl]thiophen-2-yl]acryloyl]-1H-[1,8]naphthyridine-2-one]	≥ 70	
COCCNC(=O)c1cc(C=CC(=O)c2c(O)cc(C)n(C)c2=O)cn1C [(2a-3), 4-[3-(4-hydroxy-1,6-dimethyl-2-oxo-1,2-dihydropyridin-3-yl)-3-oxo-1-propenyl]-1-methyl-1H-pyrrole-2-carboxylic acid 2-methoxyethylamide]		Inhibition percentage of fibronectin transcription amount promoted by TGF-β [2, 3]: ≥ 70%
CN1C(C(=O)/C=C/c2ccc(C(=O)NCCO)s2)=C(O)c2ccccc2S1(=O)=O [(3i), 4-hydroxy-3-[3-[5-[(2-hydroxyethyl)aminocarbonyl]thiophen-2-yl]acryloyl]-2-methyl-2H-1,2-benzothiazine-1,1-dioxide]	≥ 70	
COCC(=O)Nc1csc(C=CC(=O)c2c(O)cc(C)n(C)c2=O)c1 [(10a-3), 4-hydroxy-3-[3-[4-(methoxyacetylamino)thiophen-2-yl]-1-oxo-2-propenyl]-1,6-dimethyl-2(1H)-pyridinone]	≥ 70	
COCCNC(=O)c1ccc(C=CC(=O)C2=C(O)c3ccccc3S(=O)(=O)N2C)s1 [(14h), 4-hydroxy-3-[3-[5-[(2-methoxyethyl)aminocarbonyl]thiophen-2-yl]acryloyl]-2-methyl-2H-1,2-benzothiazine-1,1-dioxide]		Inhibition percentage of the ability of TGF-β to promote transcription of a Type I collagen gene [1, 4]: ≥ 70
COC(=O)CSCc1ccc(C=CC(=O)c2c(O)cc(C)n(C)c2=O)s1 [(34a-1), methyl [[5-[3-(4-hydroxy-1,6-dimethyl-2-oxo-1,2-dihydropyridin-3-yl)-3-oxo-1-propenyl]thiophen-2-yl]methylthio]acetate]	≥ 70	
Cc1cc(O)c(C(=O)C=Cc2ccc(C(=O)NCCO)s2)c(=O)n1C [(54a-1), 5-[3-(4-hydroxy-1,6-dimethyl-2-oxo-1,2-dihydropyridin-3-yl)-3-oxo-1-propenyl]thiophene-2-carboxylic acid 2-hydroxyethylamide]	≥ 70	
COCCNC(=O)c1ccc(C=CC(=O)c2c(O)cc(C)n(C)c2=O)s1 [(56a-1), 5-[3-(4-hydroxy-1,6-dimethyl-2-oxo-1,2-dihydropyridin-3-yl)-3-oxo-1-propenyl]thiophene-2-carboxylic acid 2-methoxyethylamide]	≥ 70	
Cc1cc(O)c(C(=O)C=Cc2ccc(C(=O)NCC(N)=O)s2)c(=O)n1C [(63a-1), 5-[3-(4-hydroxy-1,6-dimethyl-2-oxo-1,2-dihydropyridin-3-yl)-3-oxo-1-propenyl]thiophene-2-carboxylic acid carbamoylmethyamide]		Inhibition percentage of fibronectin transcription amount promoted by TGF-β [2, 4]: ≥ 70%
Cc1cc(O)c(C(=O)C=Cc2ccc(CSCC(=O)O)s2)c(=O)n1C [(71a-1), [[5-[3-(4-hydroxy-1,6-dimethyl-2-oxo-1,2-dihydropyridin-3-yl)-3-oxo-1-propenyl]thiophen-2-yl]methylhio]acetic acid]	≥ 70	
